Experimental data from PubChem BioAssay AID1671190 (National Center for Advancing Translational Sciences (NCATS), 2021).
Among all 580,000 compounds or so, about 6,100 (1.1%) were called active. The shares of active, inactive and inconclusive entries below differ from those in the screen. Calls come from the whole dose curve; as a rule, active = well fitted inhibition curve with a large enough effect; inconclusive = small, poorly fitted or top-dose-only effect, or another doubt; inactive = no such curve, though single readings can be large or run the other way. Potencies of inconclusive entries are doubtful fits and often do not repeat.

Protein sequences, listed by entry. Tags and fused reporters are not part of them. Lines headed by an entry give the natural chain unless they say otherwise; changes in a name come on top.
UniProt P18054: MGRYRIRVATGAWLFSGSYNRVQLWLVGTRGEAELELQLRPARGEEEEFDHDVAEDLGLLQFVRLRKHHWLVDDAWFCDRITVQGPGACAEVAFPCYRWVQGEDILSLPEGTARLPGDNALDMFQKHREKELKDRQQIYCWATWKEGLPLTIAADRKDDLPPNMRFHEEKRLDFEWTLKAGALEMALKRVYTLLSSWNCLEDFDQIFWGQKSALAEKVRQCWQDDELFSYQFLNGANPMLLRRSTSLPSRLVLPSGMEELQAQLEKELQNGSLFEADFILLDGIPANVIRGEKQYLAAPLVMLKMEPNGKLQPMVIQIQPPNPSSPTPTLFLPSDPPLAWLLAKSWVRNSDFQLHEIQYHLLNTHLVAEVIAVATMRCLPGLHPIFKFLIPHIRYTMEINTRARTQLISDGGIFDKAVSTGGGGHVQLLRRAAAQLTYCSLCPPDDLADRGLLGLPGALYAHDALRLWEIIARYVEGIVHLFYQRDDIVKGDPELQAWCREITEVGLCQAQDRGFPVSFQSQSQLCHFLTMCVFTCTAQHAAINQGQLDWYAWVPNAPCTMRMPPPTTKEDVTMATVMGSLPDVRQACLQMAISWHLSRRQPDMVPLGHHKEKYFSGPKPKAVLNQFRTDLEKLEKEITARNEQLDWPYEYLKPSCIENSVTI

What follows are compounds tested against Polyunsaturated fatty acid lipoxygenase ALOX12 (Homo sapiens) (UniProt P18054) (assay: Primary qHTS assay for inhibitors of human arachidonate 12S-lipoxygenase (ALOX12): Round 2). Conditions: purified 12hLO, xylenol orange hydroperoxide absorbance; activity change, negative = inhibition: at 108 µM (top of the series) unless noted.
How it was run: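 Purified human 12hLO at 150 nM in 25 mM Hepes, 0.01% Triton X-100, pH 7.0, preincubated 15 min at room temperature with compound. Reaction started with 40 uM arachidonic acid, 30 min at room temperature. Hydroperoxide measured by Fe-xylenol orange, 573/405 nm absorbance ratio.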
% is set by controls: 0 for no effect and ±100 for the full control effect; potency is the fitted concentration of half-maximal effect.

SMILES | Potency | activity change, negative = inhibition
O=C(C[C@@H]1CC[C@@H]2[C@H](COC[C@@H](O)CN2Cc2cc(F)ccc2F)O1)NCc1ccc(F)cc1 | inconclusive: 31.6 µM [inhibitor, partial curve, poor fit] | –
CCc1nn2c(=O)cc(CNc3cccc(C(=O)NC4CC4)c3)nc2s1 | active: 10 µM | –
O=C(CCN1C(=O)/C(=C/c2ccc3c(c2)OCO3)SC1=S)Nc1cccc(C(=O)O)c1 | inconclusive: 44.7 µM [inhibitor, partial curve, poor fit] | –
CC1=C(c2ccc(C(C)C)cc2)S(=O)(=O)NC1=NCc1ccccc1C | inconclusive: 44.7 µM [inhibitor, partial curve, poor fit] | –
Cc1ccc(C2=NOC3(CC(=O)N(c4ccccc4)C3=O)C2)cc1 (centres undefined) | inconclusive: 100 µM [inhibitor, single point] | –
CC1CCN(C(=O)CSc2c3c(nc4ccc(Cl)cc24)CCCC3)CC1 | inconclusive: 141 µM [inhibitor, partial curve, poor fit] | –
CN(C)CCN(C(=O)c1ccco1)c1nc2c(F)cc(F)cc2s1 | inconclusive: 22.4 µM [inhibitor, partial curve, poor fit] | –
CCOc1ccc2nc(SCC(=O)c3ccc(C)s3)sc2c1 | – | inactive: -17.1%
Oc1ccc(C[C@H]2CNC(=S)N2CC2CCCN2C[C@H](Cc2ccc(O)cc2)N2C[C@H](Cc3ccc(O)cc3)N(CC3CCCCCC3)C2=S)cc1 (some centres undefined) | inconclusive: 28.2 µM [inhibitor, partial curve, poor fit] | –
O=[N+]([O-])c1cc2no[n+]([O-])c2cc1N1CCCCC1 | inconclusive: 50.1 µM [inhibitor, partial curve, poor fit] | –
COc1ccc(S(=O)(=O)N(CC(=O)Nc2ccc(F)c(Cl)c2)c2ccc(C)cc2)cc1OC | inconclusive: 35.5 µM [inhibitor, single point] | –
O=C(CC12CC3CC(CC(C3)C1)C2)Nc1ccc2oc(-c3cncc(Br)c3)nc2c1 | – | inactive: -3.99%
COCCNC(=O)C(c1cccs1)N(Cc1ccccc1)C(=O)Cn1nnc2ccccc21 (centres undefined) | inconclusive: 1.41 µM [inhibitor, single point] | –
O=c1cccccc1NN=C1CCCCC1 | inconclusive: 17.8 µM [inhibitor, full curve, poor fit] | –
COc1cccc2c1C(=O)c1c(O)c3c(c(O)c1C2=O)C[C@@](O)(C(=O)CO)C[C@@H]3O[C@H]1C[C@H](N)[C@H](O)[C@H](C)O1 | inconclusive: 44.7 µM [inhibitor, partial curve] | inactive: -26.5% [at 22.9 µM]
Cc1ccc(Oc2c(CCC(=O)NC(C)C)c(C)nn2-c2ccccc2)cc1 | inconclusive: 70.8 µM [inhibitor, partial curve] | –
O=C(NNc1cccc(Cl)n1)Nc1ccccc1 | – | inactive: 0%
O=C(CSc1ccc([N+](=O)[O-])cc1)c1ccccc1 | inconclusive: 44.7 µM [inhibitor, partial curve, poor fit] | –
O=C(O)CCNC1CC1 | inconclusive: 31.6 µM [inhibitor, partial curve, poor fit] | –
COC(=O)c1ccccc1NC(=S)NC(=O)COc1ccc(C(C)C)cc1 | inconclusive: 44.7 µM [inhibitor, partial curve] | –
CC(=O)Nc1cccc(-c2ccnc3c2CC(C)(C(=O)Nc2cccc(OC(F)(F)F)c2)O3)c1 (centres undefined) | – | inconclusive: -31.3% [inhibitor]

SMILES | Potency | activity change, negative = inhibition
C=C1c2nc3ccccc3n2C=C(c2ccc(C)cc2)N1c1ccccc1 | inconclusive: 56.2 µM [inhibitor, partial curve, poor fit] | –
COc1ccc(OC)c(/C=C/C(=O)N2C(=O)c3cccc(N)c3C2=O)c1 | – | inactive: -10.7%
Cc1nn2c(c1-c1ccccc1OCc1ccccc1)N(CC1CC1)CCC2 | inconclusive: 44.7 µM [inhibitor, partial curve, poor fit] | –
Cc1cc(OCCOCCNC(C)C)cc(C)c1Cl | inconclusive: 2.24 µM [inhibitor, full curve] | –
O=C(c1cc(C(F)(F)F)cc(C(F)(F)F)c1)N1CCC2(CC1)CN(c1ccccn1)C2 | inconclusive: 28.2 µM [inhibitor, single point] | –
COc1cc(/C=C/c2cccc[n+]2C)ccc1OCC(=O)Nc1ccccc1C | inconclusive: 56.2 µM [inhibitor, partial curve, poor fit] | –
CCOC(=O)N1CCN(C2CCCN(Cc3cc(C)ccc3-n3cccn3)C2)CC1 (centres undefined) | – | inactive: 90.2%
CC(=O)NC(CC(=O)Nc1ccc(S(=O)(=O)NC2=NCCCCC2)cc1)c1ccccc1 (centres undefined) | inconclusive: 126 µM [inhibitor, partial curve, poor fit] | –
COCC1CN(C)CC12CCN(C(=O)c1cccc(C)c1)CC2 (centres undefined) | – | inactive: 7.71%
Cc1ccccc1CN1Cc2nc(-c3ccc4c(c3)OCO4)ccc2OCC1=O | – | inactive: -16.2% [at 176 µM]
CC(C)(C)c1cc(NC(=O)CSc2nnc(N)s2)n(-c2ccccc2)n1 | – | inactive: 20.5%
Cc1ccc(C)c(NC(=O)c2ccc3ncsc3c2)c1 | inconclusive: 3.16 µM [inhibitor, partial curve, poor fit] | –
CN(CCOC(=O)c1cccs1)Cc1ccccc1 | inconclusive: 14.1 µM [inhibitor, full curve, poor fit] | –
COC(=O)Cc1ccc(NC(=S)NCc2ccc(Cl)cc2)cc1 | inconclusive: 39.8 µM [inhibitor, partial curve] | –
COc1cccc(-n2c(SCC(=O)N3CCc4ccccc43)nc3c([nH]c4ccccc43)c2=O)c1 | inconclusive: 89.1 µM [inhibitor, partial curve, poor fit] | –
O=C(NCc1ccco1)C(c1ccccc1)N(Cc1ccccc1)C(=O)Cn1nnc2ccccc21 (centres undefined) | – | inactive: 153% [at 57.4 µM]
O=C(Nc1ccc(F)cc1F)c1cccc2c1C(=O)N(C1CCCCC1)C2 | inconclusive: 126 µM [inhibitor, partial curve, poor fit] | –
Cc1ccc(CNC(=O)N2CC[C@H]3C(=O)NCCCCCCN(Cc4ccncc4)[C@@H]3C2)cc1 | – | inactive: 31.8%
COc1cc(/C=C(/C#N)C(=O)c2ccccc2)ccc1OC(F)F | inconclusive: 39.8 µM [inhibitor, partial curve, poor fit] | –
CC(C)Cc1noc(CSc2cc(C(N)=O)c3ccccc3n2)n1 | inconclusive: 56.2 µM [inhibitor, partial curve, poor fit] | –
CCCSc1nc(N)c2c3c(sc2n1)CCCC3C (centres undefined) | inconclusive: 0.447 µM [inhibitor, full curve, poor fit] | –

SMILES | Potency | activity change, negative = inhibition
CC(=O)N1[C@@H]2CC3C4CC=C5C[C@@H](O)CC[C@]5(C)C4CC[C@]3(C)[C@@]21C(C)=O (some centres undefined) | – | inactive: -8.62%
COc1cc(/C=N/OC(C)=O)cc(OC)c1OC | – | inactive: -1.36%
C[C@H]1CN([C@@H](C)CO)C(=O)CCCn2nncc2CO[C@H]1CN(C)S(=O)(=O)c1ccc(Oc2ccccc2)cc1 | – | inactive: 5.56%
CCN(C(=O)CSc1nnc(C)n1Cc1ccccc1)C1CCS(=O)(=O)C1 (centres undefined) | inconclusive: 56.2 µM [inhibitor, partial curve, poor fit] | –
O=C1N(C2CCN(Cc3ccc(C(F)(F)F)cc3)CC2)Cc2cccn21 | – | inactive: 0.714% [at 6.33 µM]
O=C1CC(c2cc(Br)ccc2F)c2cc3c(cc2N1)OCO3 (centres undefined) | inconclusive: 100 µM [inhibitor, single point] | –
CSc1nc2ccccc2c(=O)n1N | inconclusive: 44.7 µM [inhibitor, partial curve, poor fit] | –
O=C(O)c1ccc(COc2ccccc2/C=N/O)cc1 | – | inactive: -2.14%
COc1ccc(S(=O)(=O)N(C)[C@H]2C[C@H]3c4cc(Oc5ccccc5C)ccc4CCN3C(=O)[C@H]2[C@H](C)O)cc1 | – | inconclusive: -47.6% [inhibitor]
Cc1c(CCOC(=O)CC23CC4CC(CC(C4)C2)C3)sc[n+]1CC(=O)c1ccc(Br)cc1 | inconclusive: 44.7 µM [inhibitor, partial curve, poor fit] | –
CCOc1ccccc1NC(=O)Nc1ccc2nc(NC(C)=O)sc2c1 | inconclusive: 100 µM [inhibitor, single point] | –
c1ccc(-c2nc(-c3cccnc3)cs2)cc1 | inconclusive: 22.4 µM [inhibitor, partial curve, poor fit] | –
Cc1ccccc1Cn1cnc(NC(=O)c2ccn(COc3ccc(F)cc3F)n2)n1 | – | inactive: 11.8%
COc1cccc(N2CC(C(=O)Nc3c(C(N)=O)oc4ccccc34)CC2=O)c1 (centres undefined) | inconclusive: 89.1 µM [inhibitor, partial curve, poor fit] | –
CCCCCCNC(=O)O[C@H]1Cn2c(=O)ccc(=O)n2[C@@H]2CN(S(=O)(=O)c3ccc(C)cc3)C[C@]12O | inconclusive: 50.1 µM [inhibitor, partial curve, poor fit] | –
COc1ccc(C=CC(=O)c2cc(O)ccc2O)cc1 | inconclusive: 39.8 µM [inhibitor, partial curve, poor fit] | –
O=c1c2ccc(Cl)cc2ncn1Cc1ncc(-c2ccccc2)o1 | – | inactive: 15.7%
COc1cc(Br)c(/C=C(/C#N)C(=O)c2ccccc2)cc1O | active: 10 µM | –
CCOC(=O)c1cc(NC(=O)c2cccc(-c3cc4ccccc4oc3=O)c2)ccc1N1CCOCC1 | active: 8.91 µM | –
CC(=O)Nc1ccc(C=CC=Cc2cccc([N+](=O)[O-])c2)cc1 | inconclusive: 35.5 µM [inhibitor, partial curve, poor fit] | –
NC(=Nc1nc(-c2ccccn2)cc2ccccc12)c1ccccn1 | inconclusive: 11.2 µM [inhibitor, full curve, poor fit] | –

Part of the list above in order of length of the SMILES, high to low:
SMILES | Potency | activity change, negative = inhibition
CC(=O)NC(CC(=O)Nc1ccc(S(=O)(=O)NC2=NCCCCC2)cc1)c1ccccc1 (centres undefined) | inconclusive: 126 µM [inhibitor, partial curve, poor fit] | –
CC1=C(c2ccc(C(C)C)cc2)S(=O)(=O)NC1=NCc1ccccc1C | inconclusive: 44.7 µM [inhibitor, partial curve, poor fit] | –
Cc1nn2c(c1-c1ccccc1OCc1ccccc1)N(CC1CC1)CCC2 | inconclusive: 44.7 µM [inhibitor, partial curve, poor fit] | –
